Test results: PMC6554275
Results are given in words; binding and its absence hold for the method and conditions named. In cells and extracts the contact can be indirect. Some results given as binding are weak or reduced against the parent protein; the word gives no strength. Where a sequence is shown, tags or fusion partners need not be part of it.

T1: wild-type human myc-tagged SFRP3 (human) (UniProt Q92765)
T1 sequence: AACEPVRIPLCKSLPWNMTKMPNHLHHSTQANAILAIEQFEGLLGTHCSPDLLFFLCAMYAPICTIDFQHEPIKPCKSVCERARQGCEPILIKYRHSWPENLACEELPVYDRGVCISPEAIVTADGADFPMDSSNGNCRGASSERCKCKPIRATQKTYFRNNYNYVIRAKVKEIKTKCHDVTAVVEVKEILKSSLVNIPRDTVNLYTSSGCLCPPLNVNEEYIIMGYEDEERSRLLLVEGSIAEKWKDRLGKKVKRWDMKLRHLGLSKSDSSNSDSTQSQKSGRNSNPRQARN


Molecular target: T1, wild-type human myc-tagged SFRP3 (human)
Experiment: co-IP; HEK293 cells transiently co-transfected with SFRP3-myc and V5/HA-tagged Wnt; lysis in 150 mM NaCl, 50 mM Tris pH 8, 1% NP40; anti-myc conjugated beads 2 h at 4 °C; blots with anti-myc, anti-V5, anti-HA

binding	Binder
binds	Active Wnt5a-V5 (ligand, UniProt P41221 62-380) IIGAQPLCSQLAGLSQGQKKLCHLYQDHMQYIGEGAKTGIKECQYQFRHRRWNCSTVDNTSVFGRVMQIGSRETAFTYAVSAAGVVNAMSRACREGELSTCGCSRAARPKDLPRDWLWGGCGDNIDYGYRFAKEFVDARERERIHAKGSYESARILMNLHNNEAGRRTVYNLADVACKCHGVSGSCSLKTCWLQLADFRKVGDALKEKYDSAAAMRLNSRGKLVQVNSRFNSPTTQDLVYIDPSPDYCVRNESTGSLGTQGRLCNKTSEGMDGCELMCCGRGYDQFKTVQTERCHCKFHWCCYVKCKKCTEIVDQFVCK
binds	Active Wnt2-V5 (ligand, UniProt P09544 26-360) SWWYMRATGGSSRVMCDNVPGLVSSQRQLCHRHPDVMRAISQGVAEWTAECQHQFRQHRWNCNTLDRDHSLFGRVLLRSSRESAFVYAISSAGVVFAITRACSQGEVKSCSCDPKKMGSAKDSKGIFDWGGCSDNIDYGIKFARAFVDAKERKGKDARALMNLHNNRAGRKAVKRFLKQECKCHGVSGSCTLRTCWLAMADFRKTGDYLWRKYNGAIQVVMNQDGTGFTVANERFKKPTKNDLVYFENSPDYCIRDREAGSLGTAGRVCNLTSRGMDSCEVMCCGRGYDTSHVTRMTKCGCKFHWCCAVRCQDCLEALDVHTCKAPKNADWTTAT
